Experimental findings from patent US20120134979A1, “METHODS AND COMPOSITIONS FOR THE TREATMENT OF SICKLE CELL DISEASE” (priority 2010, published 2012) are described below.

For the series, the system named is WT mice. Description: WT (control) mice treated with PEG-ADA or PSB1115 for 8 weeks. The note with it: 8 weeks treatment. The class given is in vivo, mouse. From the text: Mice. Berkley sickle cell disease transgenic mice (SCD Tg mice), expressing exclusively human sickle hemoglobin (HbS) were purchased from The Jackson Laboratory Inc (Paszty, C. Transgenic and gene knock-out mouse models of sickle cell anemia and the thalassemias. Curr Opin Hematol 4, 88-93, 1997). C57BL/6 mice used as controls were purchased from Harlan Laboratories. Adenosine receptor deficient mice were obtained from the following sources: A1R-deficient mice (Jurgen Schnermann, NIDDK, NIH); A2AR-deficient mice (Jiang-Fan Chen, Boston University School of Medicine); A2BR-deficient mice (Michael R. Blackburn, University of Texas-Houston Medical School); and A3R-deficient mice (Marlene Jacobson, Merck Research Laboratories). All receptor deficient mice were backcrossed at least 10 generations onto the C57Blk/6J background and were genotyped according to established protocols (Sun, D., et al. Mediation of tubuloglomerular feedback by adenosine: evidence from mice lacking adenosine receptors. Proc Natl Acad Sci USA 98, 9983-9988, 2001; Nemeth, Z. H., et al. Adenosine receptor activation ameliorates type 1 diabetes. FASEB J, 2007; Chen, J. F., et al. A2A adenosine receptor deficiency attenuates brain injury induced by transient focal ischemia in mice. J Neurosci 19, 9192-9200, 1999; Salvatore, C. A., et al. Disruption of the A3 adenosine receptor gene in mice and its effect on stimulated inflammatory cells. The Journal of Biological Chemistry 275, 4429-4434, 2000). Animals were maintained in accordance with institutional and NIH guidelines under research protocols that were reviewed and approved by the University of Texas Health Science Center at Houston Animal Welfare Committee.
Chronic PEG-ADA therapy. SCD transgenic mice, at eight weeks of age, were divided to two groups. One group was injected with 2.5 U PEG-ADA weekly for 8 weeks. This dosing protocol was designated SCD with PEG-ADA treatment regimen (SCD+PEG-ADA). Another group was injected with normal saline for 8 weeks; it was designated as SCD without PEG-ADA treatment regimen (SCD). Wild-type mice (C57Bl/6) used as control were injected with saline or PEG-ADA as with the SCD groups.
Chronic treatment with A2BR antagonist, PSB1115. SCD transgenic mice or wild type mice (eight weeks of age) were divided to two groups, one groups was injected with 200 μg of PSB1115 (an A2B receptor antagonist: obtained from Tocris Bioscience, St. Louis, Mo.) in PBS, daily for 8 weeks. One of groups was injected with saline.
Mouse organ isolation and histological analysis. Mice were anesthetized and body weight was determined. Organs were isolated and weighed. Half of each organ was quickly frozen in liquid nitrogen and then stored at −80° C. for heme content measurements as described below. The remaining half of each organ was fixed with 4% paraformaldehyde in PBS overnight at 4° C. Fixed tissues were rinsed in PBS, dehydrated through graded ethanol washes, and embedded in paraffin. 5 μm sections were collected on slides and stained with haematoxylin and eosin (H&E). Semiquantification of histological changes was analyzed by Image-Plus, Pro software.

Molecule `CCCn1c(=O)[nH]c2nc(-c3ccc(S(=O)(=O)O)cc3)[nH]c2c1=O` [PSB1115, reference compound] returned an HCT of 45.26 ± 1.64%, a Hb of 13.28 ± 0.54 g/dL, an MCH of 14.4 ± 0.29 pg and an MCHC of 29.34 ± 0.41 g/dL. This molecule showed an MCV of 49.12 ± 0.80 fL, an RBC of 8.81 ± 0.39 M/μl, an RDW of 14.1 ± 0.67% and a WBC of 3.89 ± 1.52 k/μl.

B1: PEG-ADA: polyethylene glycol-modified adenosine deaminase, a drug used to lower adenosine concentrations in ADA-deficient humans (protein, UniProt P56658 2-363, looked up)
Adenosine deaminase: AQTPAFNKPKVELHVHLDGAIKPETILYYGRKRGIALPADTPEELQNIIGMDKPLSLPEFLAKFDYYMPAIAGCREAVKRIAYEFVEMKAKDGVVYVEVRYSPHLLANSKVEPIPWNQAEGDLTPDEVVSLVNQGLQEGERDFGVKVRSILCCMRHQPSWSSEVVELCKKYREQTVVAIDLAGDETIEGSSLFPGHVKAYAEAVKSGVHRTVHAGEVGSANVVKEAVDTLKTERLGHGYHTLEDATLYNRLRQENMHFEVCPWSSYLTGAWKPDTEHPVVRFKNDQVNYSLNTDDPLIFKSTLDTDYQMTKNEMGFTEEEFKRLNINAAKSSFLPEDEKKELLDLLYKAYGMPSPASAEQCL
modifications: PEGylated
For the molecule B1, the HCT was determined as 43.83 ± 1.16%, the Hb was 13.28 ± 0.67 g/dL, the MCH is on record as 15.07 ± 0.46 pg and the MCHC is 30.27 ± 0.79 g/dL. Also, the MCV was 49.75 ± 0.54 fL, the RBC is listed as 8.81 ± 0.18 M/μl, the RDW is recorded as 15.05 ± 0.75% and the WBC came out at 3.27 ± 0.81 k/μl.
